Measured values taken from patent publication US20220125898A1, “PAR2 MODULATION AND METHODS THEREOF” (JANSSEN BIOTECH, INC., priority 2019, published 2022).
Positions count from the first letter of the chain named. At least one peptide structure holds a part that was inferred or is arguable (an end, a ring closure or a residue). Peptide text beside a SMILES is read from it.

How the values were obtained:
PAR2ΔSP(R36A) = biological target: T1, PAR2ΔSP(R36A) (Homo sapiens, UniProt P55085, R36A); test: FLIPR intracellular Ca2+ mobilization, signal peptide-less PAR2 with Arg36Ala mutation; assay type: cell-based
T1 construct: expressed in transfected cells; host or cells: HEK293 cells with par1 and par2 knocked out, transient
T1 sequence (P55085 with tags, fused parts or gaps R36A): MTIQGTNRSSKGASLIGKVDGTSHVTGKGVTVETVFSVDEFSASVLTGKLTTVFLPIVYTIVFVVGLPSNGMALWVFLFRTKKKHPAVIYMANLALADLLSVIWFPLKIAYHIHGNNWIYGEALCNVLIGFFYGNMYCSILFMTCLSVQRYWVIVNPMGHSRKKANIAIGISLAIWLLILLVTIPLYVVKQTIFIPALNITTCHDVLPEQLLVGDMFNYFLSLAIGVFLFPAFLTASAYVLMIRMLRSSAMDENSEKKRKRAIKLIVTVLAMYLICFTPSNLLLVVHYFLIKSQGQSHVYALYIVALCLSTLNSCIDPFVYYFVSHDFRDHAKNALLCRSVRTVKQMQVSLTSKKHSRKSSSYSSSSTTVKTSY
Experimental: (§1) FLIPR-Tetra (Molecular Device, San Jose, Calif.) was used to monitor intracellular Ca^2+ mobilization in HEK293 cells, HEK293 cells with PAR1 and PAR2 knocked-out, and cells transiently transfected with various PAR2 expression constructs. Cells were grown in 96-well polyD-lysine coated black FLIPR plates (Corning) in DMEM supplemented with 10% FCS, 1 mM pyruvate, 20 mM HEPES, at 37° C. with 5% CO2. For transient transfection, cells were grown in 96-well polyD-lysine coated black FLIPR plates and transfected using FuGENE HD (Promega, Madison, Wis.) as the transfection reagent according to the manufacturer's instructions. For samples treated with protease inhibitors, protease cocktail was added to cell culture one day after transfection and incubated overnight. Two days after transfection, cell culture media were removed, and cells were washed using HMS buffer plus 20 mM HEPES. Ca^2+ dye (Flura 3) diluted in HMS buffer plus 20 mM HEPES was used to incubate cells at RT for 40 minutes to allow Ca^2+ to enter cells. […] The untransfected cells were used as negative controls.

PAR2ΔSP = biological target: T2, PAR2ΔSP (Homo sapiens, UniProt P55085); test: FLIPR intracellular Ca2+ mobilization, PAR2 without signal peptide in par1/par2 knock-out HEK293; assay type: cell-based; conditions: PAR2 without its signal peptide, no protease inhibitor treatment
T2 construct: expressed in transfected cells; host or cells: HEK293 cells with par1 and par2 knocked out, transient, pcDNA3.1
T2 sequence (P55085 with tags, fused parts or gaps): T1 sequence (P55085 with tags, fused parts or gaps R36A) with A13R
Experimental: FLIPR-Tetra (Molecular Device, San Jose, Calif.) was used to monitor intracellular Ca^2+ mobilization in HEK293 cells, HEK293 cells with PAR1 and PAR2 knocked-out, and cells transiently transfected with various PAR2 expression constructs. Cells were grown in 96-well polyD-lysine coated black FLIPR plates (Corning) in DMEM supplemented with 10% FCS, 1 mM pyruvate, 20 mM HEPES, at 37° C. with 5% CO2. For transient transfection, cells were grown in 96-well polyD-lysine coated black FLIPR plates and transfected using FuGENE HD (Promega, Madison, Wis.) as the transfection reagent according to the manufacturer's instructions. For samples treated with protease inhibitors, protease cocktail was added to cell culture one day after transfection and incubated overnight. Two days after transfection, cell culture media were removed, and cells were washed using HMS buffer plus 20 mM HEPES. Ca^2+ dye (Flura 3) diluted in HMS buffer plus 20 mM HEPES was used to incubate cells at RT for 40 minutes to allow Ca^2+ to enter cells. Intracellular Ca^2+ mobilization stimulated by various concentrations of ligands (trypsin, or peptide ligand) was monitored by FLIPR-Tetra as described (Liu et al., Mol. Pharmacol. 88:911-25 (2015)). The untransfected cells were used as negative controls. […]

PAR2(R36A) = biological target: T3, PAR2(R36A) (Homo sapiens, UniProt P55085, R36A); test: FLIPR intracellular Ca2+ mobilization, full length PAR2 with Arg36Ala mutation; assay type: cell-based
T3 construct: expressed in transfected cells; host or cells: HEK293 cells with par1 and par2 knocked out, transient
T3 sequence (P55085 26-397 R36A): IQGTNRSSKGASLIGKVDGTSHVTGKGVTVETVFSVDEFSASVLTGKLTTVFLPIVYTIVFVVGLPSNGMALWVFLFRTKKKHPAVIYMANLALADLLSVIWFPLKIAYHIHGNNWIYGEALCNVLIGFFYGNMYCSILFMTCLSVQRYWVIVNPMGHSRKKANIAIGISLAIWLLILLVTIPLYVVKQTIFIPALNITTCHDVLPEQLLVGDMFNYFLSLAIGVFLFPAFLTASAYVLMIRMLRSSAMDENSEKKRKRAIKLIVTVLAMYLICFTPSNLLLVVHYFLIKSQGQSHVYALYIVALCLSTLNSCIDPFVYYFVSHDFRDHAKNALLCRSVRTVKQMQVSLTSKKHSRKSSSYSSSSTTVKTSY
Experimental: as §1

PAR2ΔSPΔL = biological target: T4, PAR2ΔSPΔL (Homo sapiens, UniProt P55085); test: FLIPR intracellular Ca2+ mobilization, PAR2 without signal peptide and tethered ligand; assay type: cell-based
T4 construct: expressed in transfected cells; host or cells: HEK293 cells with par1 and par2 knocked out, transient
T4 sequence (P55085 with tags, fused parts or gaps): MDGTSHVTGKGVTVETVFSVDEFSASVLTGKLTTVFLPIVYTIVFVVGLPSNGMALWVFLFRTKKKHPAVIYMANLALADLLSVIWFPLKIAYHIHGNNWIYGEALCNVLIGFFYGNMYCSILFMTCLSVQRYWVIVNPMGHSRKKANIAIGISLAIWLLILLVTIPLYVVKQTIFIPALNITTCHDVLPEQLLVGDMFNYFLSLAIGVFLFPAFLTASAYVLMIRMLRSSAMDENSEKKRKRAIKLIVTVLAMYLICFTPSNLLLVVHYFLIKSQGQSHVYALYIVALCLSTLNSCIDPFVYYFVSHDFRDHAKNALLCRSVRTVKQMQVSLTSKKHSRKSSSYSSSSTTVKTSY
Experimental: as §1

[1] = system: PAR2 wild type, PAR2(R36A), PAR2ΔSP(R36A), PAR2ΔSPΔL; test: ELISA of total and cell surface PAR2 expression, other PAR2 forms; assay type: cell-based, human; conditions: PAR2 forms other than PAR2ΔSP

CC[C@H](C)[C@H](NC(=O)[C@H](CC(C)C)NC(=O)[C@@H](N)CO)C(=O)NCC(=O)N[C@@H](CCCCN)C(=O)N[C@H](C(=O)O)C(C)C [PAR2-AP, SLIGKV] (H-SLIGKV-OH; N-terminus and C-terminus assumed)
receptor response to ligand stimulation in FLIPR assay (PAR2ΔSP(R36A)): much higher sensitivity to PAR2-AP compared to that of PAR2ΔSP
EC50 (PAR2ΔSP): 5.8 µM
receptor response to ligand stimulation in FLIPR assay (PAR2(R36A)): almost identically to the full length PAR2 receptor
receptor activation in FLIPR assay (PAR2ΔSPΔL): fully activated
effect on cell surface and total protein expression levels [1]: decreased
